Source: PubChem BioAssay AID686938 (Drosophila RNAi Screening Center, 2013)

Test: 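Fly genes required for calcium entry once internal stores are emptied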 (primary screen)
Cells: Drosophila S2R+ cells
Reagents: long dsRNA against Drosophila genes, about 0.25 µg dsRNA per well, roughly 10,000 cells
Time to read-out: 5 days of knock-down before the calcium assay
Challenge: thapsigargin (SERCA pump blocker) to empty calcium stores; entry signal taken 4 min after adding it
Read-out: 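Per-well fluo-4 fluorescence in two replicates, unnormalised, measured in resting cells and 4 min after store depletion by the SERCA blocker thapsigargin; ratio of the two present in few wells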
Reading the numbers: calcium entry signal: higher = stronger calcium signal after store depletion; entry to resting ratio: higher = more calcium entry relative to resting level; resting calcium signal: higher = higher resting calcium signal
Units: calcium entry signal in fluorescence units; resting calcium signal in fluorescence units
Hit rule: 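Hit if the duplicate-averaged plate z-score for entry over resting signal is under −3; wells with weak total dye signal (Fmax z < −2) or more than 5 off-targets removed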
Calls: active = strongly reduced calcium entry; inactive = no strong reduction
The screen tested about 23,000 reagents; shown is an unselected part of those with a known target gene and a result. Of all reagents, 75 (0.33%) are marked active. 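Raw plate signals without normalisation; calls rest on plate z-scores that were not deposited; ratio present for only 364 wells.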 Names joined by + are all predicted targets of the reagent. Not given: the dose of the treatment.

With CG7881 [DRSC04898], what was measured?
calcium entry signal, replicate 1: 4.29e7; calcium entry signal, replicate 2: 4.64e7; resting calcium signal, replicate 1: 2.16e7; resting calcium signal, replicate 2: 2.25e7; Outcome: inactive

How did the screen score Ada3 (transcriptional Adaptor 3) [DRSC20321]?
calcium entry signal, replicate 1: 3.00e7; calcium entry signal, replicate 2: 2.67e7; resting calcium signal, replicate 1: 1.67e7; resting calcium signal, replicate 2: 1.33e7; Outcome: inactive

How did the screen score Ada3 (transcriptional Adaptor 3) [DRSC20322]?
calcium entry signal, replicate 1: 3.27e7; calcium entry signal, replicate 2: 3.13e7; resting calcium signal, replicate 1: 1.72e7; resting calcium signal, replicate 2: 1.38e7; Outcome: inactive

With CG8197 [DRSC07105], what does the deposit list?
calcium entry signal, replicate 1: 3.38e7; calcium entry signal, replicate 2: 3.61e7; resting calcium signal, replicate 1: 1.55e7; resting calcium signal, replicate 2: 1.71e7; Outcome: inactive

Which result is listed for Jhbp14 (Juvenile hormone binding protein 14) [DRSC01988]?
calcium entry signal, replicate 1: 4.97e7; calcium entry signal, replicate 2: 3.07e7; resting calcium signal, replicate 1: 2.11e7; resting calcium signal, replicate 2: 1.51e7; Outcome: inactive

For Elp6 (Elongator complex protein 6) [DRSC16571], how do the results read?
calcium entry signal, replicate 1: 3.99e7; calcium entry signal, replicate 2: 4.82e7; resting calcium signal, replicate 1: 1.58e7; resting calcium signal, replicate 2: 2.14e7; Outcome: inactive

With CG43127 [DRSC09039], what was measured?
calcium entry signal, replicate 1: 3.61e7; calcium entry signal, replicate 2: 3.42e7; resting calcium signal, replicate 1: 2.08e7; resting calcium signal, replicate 2: 1.65e7; Outcome: inactive

For rig (rigor mortis) [DRSC06053], what does the deposit list?
calcium entry signal, replicate 1: 3.96e7; calcium entry signal, replicate 2: 3.59e7; resting calcium signal, replicate 1: 1.83e7; resting calcium signal, replicate 2: 1.84e7; Outcome: inactive

What did the screen give for rig (rigor mortis) [DRSC06400]?
calcium entry signal, replicate 1: 2.29e7; calcium entry signal, replicate 2: 2.82e7; resting calcium signal, replicate 1: 1.16e7; resting calcium signal, replicate 2: 1.40e7; Outcome: inactive

For Prosalpha2 (Proteasome alpha2 subunit) [DRSC16798], how do the results read?
calcium entry signal, replicate 1: 1.70e7; calcium entry signal, replicate 2: 2.01e7; resting calcium signal, replicate 1: 1.34e7; resting calcium signal, replicate 2: 1.50e7; Outcome: inactive

With CG15873 [DRSC04277], how do the results read?
calcium entry signal, replicate 1: 3.83e7; calcium entry signal, replicate 2: 4.23e7; resting calcium signal, replicate 1: 2.00e7; resting calcium signal, replicate 2: 2.10e7; Outcome: inactive

For CG16989 [DRSC18535], what was measured?
calcium entry signal, replicate 1: 2.88e7; calcium entry signal, replicate 2: 4.74e7; entry to resting ratio: 2; resting calcium signal, replicate 1: 1.42e7; resting calcium signal, replicate 2: 1.81e7; Outcome: inactive

Which result is listed for ScsbetaA (Succinyl-coenzyme A synthetase beta subunit, ADP-forming) [DRSC14446]?
calcium entry signal, replicate 1: 2.90e7; calcium entry signal, replicate 2: 2.84e7; resting calcium signal, replicate 1: 1.41e7; resting calcium signal, replicate 2: 1.38e7; Outcome: inactive

How did the screen score CG33108 [DRSC21613]?
calcium entry signal, replicate 1: 3.28e7; calcium entry signal, replicate 2: 3.42e7; resting calcium signal, replicate 1: 1.73e7; resting calcium signal, replicate 2: 1.47e7; Outcome: inactive

With Cib2 (Calcium and integrin binding family member 2) [DRSC04535], what was measured?
calcium entry signal, replicate 1: 4.29e7; calcium entry signal, replicate 2: 4.29e7; resting calcium signal, replicate 1: 2.12e7; resting calcium signal, replicate 2: 1.89e7; Outcome: inactive

For Scp2 (Sarcoplasmic calcium-binding protein 2) [DRSC13166], what does the deposit list?
calcium entry signal, replicate 1: 3.26e7; calcium entry signal, replicate 2: 2.75e7; resting calcium signal, replicate 1: 1.89e7; resting calcium signal, replicate 2: 1.38e7; Outcome: inactive

How did the screen score Scp2 (Sarcoplasmic calcium-binding protein 2) [DRSC16854]?
calcium entry signal, replicate 1: 2.26e7; calcium entry signal, replicate 2: 3.02e7; resting calcium signal, replicate 1: 1.13e7; resting calcium signal, replicate 2: 4.98e7; Outcome: inactive

What did the screen give for CG7094 [DRSC03005]?
calcium entry signal, replicate 1: 5.04e7; calcium entry signal, replicate 2: 3.88e7; resting calcium signal, replicate 1: 2.17e7; resting calcium signal, replicate 2: 1.75e7; Outcome: inactive

For CG13926 [DRSC08395], what does the deposit list?
calcium entry signal, replicate 1: 3.80e7; calcium entry signal, replicate 2: 4.75e7; resting calcium signal, replicate 1: 1.93e7; resting calcium signal, replicate 2: 2.12e7; Outcome: inactive

For ey (eyeless) [DRSC17173], how do the results read?
calcium entry signal, replicate 1: 4.12e7; calcium entry signal, replicate 2: 5.65e7; entry to resting ratio: 1.9; resting calcium signal, replicate 1: 2.12e7; resting calcium signal, replicate 2: 2.48e7; Outcome: inactive

How did the screen score lncRNA:CR32368 (long non-coding RNA:CR32368) [DRSC08899]?
calcium entry signal, replicate 1: 4.62e7; calcium entry signal, replicate 2: 4.44e7; resting calcium signal, replicate 1: 2.31e7; resting calcium signal, replicate 2: 1.97e7; Outcome: inactive

How did the screen score CG32299 + CG32298 [DRSC07980]?
calcium entry signal, replicate 1: 2.65e7; calcium entry signal, replicate 2: 4.89e7; resting calcium signal, replicate 1: 2.29e7; resting calcium signal, replicate 2: 2.16e7; Outcome: inactive

What is on record for CG32299 + CG32298 [DRSC22354]?
calcium entry signal, replicate 1: 3.71e7; calcium entry signal, replicate 2: 5.96e7; resting calcium signal, replicate 1: 1.83e7; resting calcium signal, replicate 2: 3.10e7; Outcome: inactive

For upSET [DRSC11051], how do the results read?
calcium entry signal, replicate 1: 1.75e7; calcium entry signal, replicate 2: 2.72e7; resting calcium signal, replicate 1: 1.04e7; resting calcium signal, replicate 2: 2.17e7; Outcome: inactive

What is on record for upSET [DRSC23289]?
calcium entry signal, replicate 1: 4.33e7; calcium entry signal, replicate 2: 4.16e7; resting calcium signal, replicate 1: 1.90e7; resting calcium signal, replicate 2: 1.68e7; Outcome: inactive

For Alp12 (Alkaline phosphatase 12) [DRSC02515], what does the deposit list?
calcium entry signal, replicate 1: 4.20e7; calcium entry signal, replicate 2: 4.88e7; resting calcium signal, replicate 1: 2.13e7; resting calcium signal, replicate 2: 2.12e7; Outcome: inactive

What did the screen give for CG15450 [DRSC20522]?
calcium entry signal, replicate 1: 3.06e7; calcium entry signal, replicate 2: 4.67e7; resting calcium signal, replicate 1: 1.63e7; resting calcium signal, replicate 2: 2.15e7; Outcome: inactive

Part of the list above, reformatted:
gene	amplicon	calcium entry signal, replicate 1	calcium entry signal, replicate 2	entry to resting ratio	resting calcium signal, replicate 1	resting calcium signal, replicate 2	Outcome
CG15873	DRSC04277	3.83e7	4.23e7		2.00e7	2.10e7	inactive
CG16989	DRSC18535	2.88e7	4.74e7	2	1.42e7	1.81e7	inactive
ScsbetaA (Succinyl-coenzyme A synthetase beta subunit, ADP-forming)	DRSC14446	2.90e7	2.84e7		1.41e7	1.38e7	inactive
CG33108	DRSC21613	3.28e7	3.42e7		1.73e7	1.47e7	inactive
